Assay results from article PMC10602610.
Results are given in words; binding and its absence hold for the method and conditions named. For part of these data: Binding seen in cells or lysates may run through a third protein. Some entries that bind do so weakly or less than the wild type. Where a sequence is shown, tags or fusion partners need not be part of it.

T1: VITAMIN C …2 (VTC2), bait fusion VTC2-BD (Arabidopsis thaliana) (UniProt Q8RWE8)
T1 sequence: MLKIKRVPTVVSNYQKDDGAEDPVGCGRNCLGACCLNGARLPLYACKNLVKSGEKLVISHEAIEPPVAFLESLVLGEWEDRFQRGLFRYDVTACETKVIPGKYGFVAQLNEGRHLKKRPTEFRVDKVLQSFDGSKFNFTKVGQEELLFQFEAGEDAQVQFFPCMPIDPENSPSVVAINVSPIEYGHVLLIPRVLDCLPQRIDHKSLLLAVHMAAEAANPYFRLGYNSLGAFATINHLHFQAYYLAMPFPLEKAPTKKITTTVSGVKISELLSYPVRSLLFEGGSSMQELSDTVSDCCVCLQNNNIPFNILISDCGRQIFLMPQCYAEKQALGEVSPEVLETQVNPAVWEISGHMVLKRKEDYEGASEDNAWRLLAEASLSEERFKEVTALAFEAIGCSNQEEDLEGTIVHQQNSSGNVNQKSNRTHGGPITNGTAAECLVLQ

T2: VITAMIN C …2 (VTC2), BiFC fusion (Arabidopsis thaliana) (UniProt Q8RWE8)
T2 sequence: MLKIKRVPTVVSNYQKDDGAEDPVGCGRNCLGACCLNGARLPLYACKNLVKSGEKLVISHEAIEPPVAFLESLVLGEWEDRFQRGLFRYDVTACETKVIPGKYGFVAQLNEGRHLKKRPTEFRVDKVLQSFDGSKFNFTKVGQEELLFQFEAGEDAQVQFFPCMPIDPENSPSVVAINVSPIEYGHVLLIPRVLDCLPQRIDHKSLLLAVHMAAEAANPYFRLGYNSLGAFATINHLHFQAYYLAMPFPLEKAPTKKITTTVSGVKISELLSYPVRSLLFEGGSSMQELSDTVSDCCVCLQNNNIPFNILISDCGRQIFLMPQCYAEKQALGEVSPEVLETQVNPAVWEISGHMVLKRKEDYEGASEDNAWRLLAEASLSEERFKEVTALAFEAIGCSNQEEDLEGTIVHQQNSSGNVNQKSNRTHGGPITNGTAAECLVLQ


Legend:
[1] = target: T1, VITAMIN C …2 (VTC2), bait fusion VTC2-BD (Arabidopsis thaliana); assay: two-hybrid; targeted Y2H in S. cerevisiae Y2HGold; VTC2-BD as bait, PLPB-AD as prey; growth on SD-Trp-Leu-His-Ade with Aureobasidin A (0.2 µg/mL) and X-α-Gal, 30°C, 5 d
[2] = target: T2, VITAMIN C …2 (VTC2), BiFC fusion (Arabidopsis thaliana); assay: split reporter; 2in1 BiFC (pBiFCt-2in1-NC) in agroinfiltrated N. benthamiana leaves, YFP signal by confocal microscopy, 35S::RFP as control of transformation; leaves under normal growth conditions, or exposed to dark or high blue light (300 µmol m^-2 s^-1), YFP/RFP ratio in nuclei stronger in the dark

Row | Binder | binding [1] | binding [2]
1 | PAS/LOV PROTEIN B (PLPB), prey fusion PLPB-AD (protein, UniProt O64511-1 1-399) MSLTKSSESVFTEEEEEDSFSGRYTLWIKEALEELPHNFTITDPFISGHPIVFASLGFLKMTGYSREEVIGRNGKVFQGPKTNRRSIMEIREAIREERSVQVSLLNYRKSGSPFWMLFHMCPVFGKDDGKVTNFVAVQVPISGREHHRKKLRNVGDLSSDTSPTFGSCRREVCFGNFVCQDRALPVECDDDEQGLEDWEQCEASESEKLKATEAINNVLSILVHYSELSGRLVCGKRYCLRGVDCLSSSLVISLGRIKQSFVLTNPCLPDMPIIYASDAFLTLTGYKRQEVLGQNCRFLSGVDTDSSVLYEMKECILKGQSCTVQILNYSNRKDKSSFWNLLHISPVRNASGKTAYFVGVQVEASCRNTEIKELRPETRQLSVVGAVRVAVRSSLMVTC | binds | –
2 | PAS/LOV PROTEIN B (PLPB), BiFC fusion (protein, UniProt O64511-1 1-399) MSLTKSSESVFTEEEEEDSFSGRYTLWIKEALEELPHNFTITDPFISGHPIVFASLGFLKMTGYSREEVIGRNGKVFQGPKTNRRSIMEIREAIREERSVQVSLLNYRKSGSPFWMLFHMCPVFGKDDGKVTNFVAVQVPISGREHHRKKLRNVGDLSSDTSPTFGSCRREVCFGNFVCQDRALPVECDDDEQGLEDWEQCEASESEKLKATEAINNVLSILVHYSELSGRLVCGKRYCLRGVDCLSSSLVISLGRIKQSFVLTNPCLPDMPIIYASDAFLTLTGYKRQEVLGQNCRFLSGVDTDSSVLYEMKECILKGQSCTVQILNYSNRKDKSSFWNLLHISPVRNASGKTAYFVGVQVEASCRNTEIKELRPETRQLSVVGAVRVAVRSSLMVTC | – | binds
3 | PAS/LOV PROTEIN A (PLPA), BiFC fusion (protein, UniProt O64511-2 1-397) MSLTKSSESVFTEEEEEDSFSGRYTLWIKEALEELPHNFTITDPFISGHPIVFASLGFLKMTGYSREEVIGRNGKVFQGPKTNRRSIMEIREAIREERSVQVSLLNYRKSGSPFWMLFHMCPVFGKDDGKVTNFVAVQVPISGREHHRKKLRNVGDLSSDTSPTFGSCRREVCFGNFVCQDRALPVECDDDEQGLEDWEQCEASESEKLKATEAINNVLSILVHYSELSGRLVCGKRYCLRGVDCLSSSLVISLGRIKQSFVLTNPCLPDMPIIYASDAFLTLTGYKRQEVLGQNCRFLSGVDTDSSVLYEMKECILKGQSCTVQILNYRKDKSSFWNLLHISPVRNASGKTAYFVGVQVEASCRNTEIKELRPETRQLSVVGAVRVAVRSSLMVTC | – | binds
